From PubChem BioAssay AID445 (National Center for Advancing Translational Sciences (NCATS), 2006) come the findings set out here.

SMILES strings stand for the structures. The list shows a part of the results. These are further read-outs of the screen, such as a control signal, another cell line or another target. No call is given for them. The list favours compounds with an active or inconclusive main result. Potencies come from curve fits of mixed quality, noted in brackets.

As a reminder, the AC50 is the midpoint of the concentration-response curve, whichever way the signal moves.

The assay is described as follows: IkB Signaling. To be noted: ABC-DLBCL IkBa-CBG/CBR dual luciferase ratio (green luciferase fused to IkBa over red control in OCI-Ly3 lymphoma cells), 4 h; measured here: control luc red channel unless noted. The procedure, abridged: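 Curves were fitted separately to fusion (green), unfused (red) and ratio luminescence, then classed by r2, magnitude and activity. Cells: OCI-Ly3, 4 h compound plus doxycycline at 37C; 10 uM MG-132 defined full response.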
Consider `COCCCN1C(=O)c2[nH]nc(-c3cc(C)ccc3O)c2C1c1ccc(F)cc1` (centres undefined), for which the AC50 is 25.1 µM [falling, single point]. For `COc1cc(-n2nc(C)c3c2OC(N)=C(C#N)C3c2ccccc2)c(Cl)c(Br)c1O` (centres undefined), the AC50 is 6.31 µM [falling, partial curve]. The same measure for `Cc1nnc(SCCC(C)C)[nH]c1=O`: 12.6 µM [falling, partial curve]; for `O=C(Nc1noc2ccccc12)c1cccc(Cl)c1Cl`: 0.2 µM [rising, full curve]; for `COc1ccc(CNCCC(c2ccc(C)cc2)c2ccco2)cc1` (centres undefined): 39.8 µM [falling, single point]. In the case of `Cc1cccc(OCC(=O)Nc2ccc(S(=O)(=O)Nc3onc(C)c3C)cc2)c1C` it was 10 µM [falling, partial curve].

For `Clc1cccc(-n2ncc3c(Nc4ccc5c(c4)OCCO5)ncnc32)c1`, the AC50 was 0.631 µM [falling, full curve]. Consider `CC(=O)N1CCc2cc(S(=O)(=O)NC(Cc3ccccc3)C(=O)Nc3ccc(C)cc3C)ccc21` (centres undefined), for which the AC50 was 20 µM [falling, partial curve]. As for `CC(C)Oc1ccccc1C1CC(=O)Nc2cc3c(cc21)OCO3` (centres undefined), the AC50 was 25.1 µM [falling, partial curve]. In the case of `O=c1cc2nc(-c3ccccc3)nc(SCCOc3ccc(Cl)cc3)n2[nH]1`, the AC50 was 0.251 µM [rising, partial curve].

Take `COc1ccc(C(=O)Nc2ccc3oc(-c4cc(Cl)ccc4Cl)nc3c2)cc1Br`: the AC50 is 6.31 µM [falling, partial curve]. The same measure for `COc1ccc(CCNC(=O)CCn2c(=O)c3ccccc3n(CC(=O)Nc3cc(Cl)ccc3C)c2=O)cc1OC`: 1.58 µM [rising, full curve, poor fit]; for `CC(=O)c1cccc(NC(=O)CCCSc2nc(-c3ccco3)cc(C(F)(F)F)n2)c1`: 31.6 µM [falling, single point]; for `COc1ccc(NC(=O)CN2C(=O)C(c3ccc(C)cc3)=NC23CCCCCC3)cc1Cl`: 12.6 µM [falling, partial curve]. `COc1cccc(-c2nc(SCC(=O)NCC3CCCO3)c(-c3ccc(Cl)cc3)[nH]2)c1` (centres undefined): the AC50 was 25.1 µM [falling, partial curve]. In the case of `CN(C)CCNC(=O)C(=O)NCC(c1cccnc1)N1CCN(c2ccccc2)CC1` (centres undefined) it was 25.1 µM [falling, single point]. The same measure for `O=C(c1ccccc1Br)N(Cc1ccccc1F)C1CCS(=O)(=O)C1` (centres undefined): 39.8 µM [falling, single point]; for `CCC(C)NC(=O)CSCc1nc(-c2ccc(C)cc2)oc1C` (centres undefined): 25.1 µM [falling, single point]. For `Cc1cccc(CC(=O)NCCc2sc3nc(-c4ccc(F)cc4)nn3c2C)c1`, the AC50 is 39.8 µM [falling, single point]. The same measure for `COc1ccc(-c2noc(CCC(=O)NCCCN3CCC(Cc4ccccc4)CC3)n2)cc1`: 10 µM [falling, partial curve]. On to `N#Cc1ccccc1NC(=O)CSc1nnc(-c2ccccc2O)n1-c1ccccc1`, for which the AC50 is 15.8 µM [falling, partial curve].

As to `Cc1ccn2cc(C(=O)Nc3ccc4c(c3)OCCO4)nc2c1`, the AC50 is 25.1 µM [falling, single point].

On to `Cc1ccc(Cl)cc1NC(=O)CSCc1cnn(-c2ccccc2)c1-n1cccc1`, for which the AC50 was 25.1 µM [falling, single point]. Turning to `CCCCn1c(SCc2ncc(-c3ccccc3)o2)nc2cc(S(N)(=O)=O)ccc21`, the AC50 is 7.94 µM [falling, partial curve].

For the compound `O=C(Cn1c(=O)ccc2cc(S(=O)(=O)N3CCCC3)ccc21)Nc1ccc(Cl)cc1`, the AC50 was 20 µM [falling, partial curve]. In the case of `Cn1nnnc1SCCCNCc1ccccc1OCc1ccc(F)cc1` it was 25.1 µM [falling, single point]. The same measure for `COc1ccc(CNC(=O)CSc2ncc3c(n2)-c2cc(Cl)ccc2N(C)S3(=O)=O)cc1`: 39.8 µM [rising, single point]; for `CCN1C(=O)c2ccccc2Sc2ccc(NC(=O)c3cccc(C)c3)cc21`: 25.1 µM [falling, partial curve].

Regarding `Cc1ccc(NC(=O)Nc2cccs2)c(C)c1`, the AC50 was 1 µM [rising, full curve]. The same measure for `CCOC(=O)c1cc(OC(=O)c2ccccc2OC)n(-c2ccccc2)n1`: 25.1 µM [falling, single point]; for `O=C(c1cccc2ccccc12)N1CCN(CC2CC=CCC2)CC1` (centres undefined): 20 µM [falling, partial curve]. The same measure for `COc1ccc(CCNC(=O)c2ccc3c(c2)N(Cc2cccc(Cl)c2)C(=O)c2ccccc2S3=O)cc1OC` (centres undefined): 0.794 µM [rising, full curve, poor fit]; for `Cc1cc2n(n1)C(c1c[nH]c3ccccc13)Nc1ccccc1-2` (centres undefined): 39.8 µM [falling, single point].

With `CC(=O)c1ccc(N2C(=O)Nc3ccccc3S2(=O)=O)cc1`, the AC50 is 1 µM [rising, full curve, poor fit]. As to `O=C(Cn1c(SCC(=O)Nc2ccc(F)cc2)nc2ccccc21)NCc1ccc(Cl)cc1`, the concentration at half-maximal activity (AC50) was 20 µM [falling, partial curve]. With `CCOc1ccc(C(=O)NCCc2sc(-c3ccc(F)cc3)nc2C)cc1`, the AC50 is 0.794 µM [falling, partial curve, poor fit]. In the case of `CCOC(=O)c1ccc(NC(=O)CN2C(=O)c3cccnc3Sc3ccccc32)cc1` it was 39.8 µM [falling, single point]; in that of `COc1ccc(Nc2ncc(C(=O)N3CCN(c4ccccc4OC)CC3)c3ccccc23)cc1`, 7.94 µM [falling, full curve]; in that of `Oc1c(C(c2cccs2)N2CCC3(CC2)OCCO3)sc2ncnn12` (centres undefined), 3.16 µM [rising, full curve]. The same measure for `Cn1c(SCc2ccccc2Cl)nc(=O)c2c1NC(=O)CC2c1cc(F)ccc1F` (centres undefined): 25.1 µM [falling, single point]. The same measure for `CCCC(=O)Nc1ccc(NC(=O)c2ccccn2)cn1`: 10 µM [falling, partial curve]; for `O=C(Cn1cc(S(=O)(=O)c2ccccc2)c(=O)c2cc3c(cc21)OCO3)Nc1ccccc1`: 15.8 µM [falling, partial curve]. On to `O=C(NCCCc1ccccc1)c1nn(-c2ccccc2)nc1CO`, for which the AC50 is 39.8 µM [falling, single point]. In the case of `Cc1nc2nc(SCC(=O)NC3CCC(C)CC3)nn2c(C)c1Cc1ccccc1Cl` (centres undefined), the AC50 was 31.6 µM [falling, single point].

In the case of `CCn1cc2nc(SCc3cccc(C)c3)n(CCc3ccccc3)c(=O)c2n1`, the AC50 is 3.98 µM [falling, partial curve]. As to `Cc1nc2c(-c3ccccc3)c(C)nn2c(C)c1CCC(=O)NCc1ccccc1`, the AC50 is 31.6 µM [falling, partial curve, poor fit]. For `Cc1ccc(S(=O)(=O)n2nc(-c3ccco3)nc2NCc2ccc(N(C)C)cc2)cc1`, the AC50 is 2.51 µM [falling, partial curve].

For the compound `CCc1ccc2oc(-c3ccc(C)c(NC(=O)c4ccc(C#N)cc4F)c3)nc2c1`, the AC50 was 1.26 µM [falling, full curve].

Turning to `Cc1cc(NCc2ccc(Cl)cc2)n2cnnc2n1`, the AC50 was 15.8 µM [falling, single point]. In the case of `Cc1cccc(-c2noc(-c3ccc(NCc4cccnc4)c([N+](=O)[O-])c3)n2)c1` it was 31.6 µM [falling, single point]. The same measure for `O=C(Nc1ccc(F)cc1)c1ccc2c(c1)NC(=O)c1ccccc1S2`: 0.0501 µM [falling, full curve]; for `CS(=O)(=O)Nc1ccccc1C(=O)Nc1cccc(Cl)c1`: 12.6 µM [falling, partial curve]; for `CCOC(=O)CS(=O)(=O)c1nc(-c2ccccc2)cc(C(F)(F)F)n1`: 2.51 µM [falling, full curve]. In the case of `CCC(=O)Nc1cccc(OCc2cc(=O)n3cc(C)ccc3n2)c1` it was 0.501 µM [falling, partial curve, poor fit]; in that of `c1ccc(-c2cn3c4c(sc3n2)CCCC4)cc1`, 15.8 µM [falling, partial curve]. For the compound `CCN(CC)C(=O)COc1ccc(-c2ccccc2)cc1`, the AC50 is 12.6 µM [falling, partial curve].

As for `COc1ccc(OC)c(NC(=O)c2c(NCc3ccc(N(C)C)cc3)sc3c2CCCC3)c1`, the AC50 is 1.26 µM [rising, full curve]. In the case of `COc1ccc(NC(=O)c2oc3ccccc3c2NC(=O)C23CC4CC(CC(C4)C2)C3)cc1` it was 20 µM [falling, partial curve]; in that of `O=C(Nc1nc2c(Cl)cccc2s1)c1ccc(Br)o1`, 2 µM [falling, full curve]. The same measure for `O=C(NCc1ccccc1Cl)c1ccc(NC(=O)N2CCSc3ccccc32)cc1`: 31.6 µM [falling, single point]. The same measure for `COc1ccc(S(=O)(=O)N(CC(=O)Nc2ccc3c(c2)OCO3)c2ccc(C)cc2)cc1`: 12.6 µM [falling, partial curve, poor fit]; for `COc1cc(OC)cc(C(=O)Nc2ccc3c(c2)n(C)c(=O)c(=O)n3C)c1`: 25.1 µM [falling, single point]; for `Cc1ccc(Cl)cc1NC(=O)Cn1c(=O)n(Cc2ccccc2)c(=O)c2oc3ccccc3c21`: 15.8 µM [falling, single point]. With `CCn1cc2c(n1)-c1c(oc(C(=O)Nc3cccc(C)c3C)c1C)CC2`, the AC50 is 10 µM [falling, single point].
